Reference: patent publication US10921327B2, “Probes for quantitative imaging of thiols in various environments” (Baylor College of Medicine, priority 2014, dated 2021)

Experiments:
HeLa cells = assay: Live imaging based quantification of GSH levels, HeLa; assay type: cell-based
3T3-L1 cells = assay: Live imaging based quantification of GSH levels, 3T3-L1; assay type: cell-based

## CCN(CC)c1ccc2cc(/C=C/C(=O)c3ccc(C(=O)O)cc3Br)c(=O)oc2c1 [TQ Green]
HeLa cells
  Imaging Based CGSH: 4.6 ± 0.8 mM
3T3-L1 cells
  Imaging Based CGSH: 4.6 ± 0.9 mM
